Experimental data reported in the supplement of paper PMC12823440, “Inhibitors supercharge kinase turnover through native proteolytic circuits” (Nature, 2025).
This is one part of the list. The calls rarely recur for the same compound in another form.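 Kinases, fused to nanoluciferase, were expressed in K562 cells; luminescence was measured every 4 h from 2 to 18 h as percent of control (DMSO = 100%, positive control = 0%). A time point is decreased if signal falls significantly (2 sigma). Hits were called by the authors by a rule that is not shown; the count of time points alone does not decide it.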

Sequences of proteins named here, by UniProt entry; tags and fusion partners are left off. A change or cut given only in a name is not applied to a line headed by its entry.
UniProt Q9UQM7, whole entry: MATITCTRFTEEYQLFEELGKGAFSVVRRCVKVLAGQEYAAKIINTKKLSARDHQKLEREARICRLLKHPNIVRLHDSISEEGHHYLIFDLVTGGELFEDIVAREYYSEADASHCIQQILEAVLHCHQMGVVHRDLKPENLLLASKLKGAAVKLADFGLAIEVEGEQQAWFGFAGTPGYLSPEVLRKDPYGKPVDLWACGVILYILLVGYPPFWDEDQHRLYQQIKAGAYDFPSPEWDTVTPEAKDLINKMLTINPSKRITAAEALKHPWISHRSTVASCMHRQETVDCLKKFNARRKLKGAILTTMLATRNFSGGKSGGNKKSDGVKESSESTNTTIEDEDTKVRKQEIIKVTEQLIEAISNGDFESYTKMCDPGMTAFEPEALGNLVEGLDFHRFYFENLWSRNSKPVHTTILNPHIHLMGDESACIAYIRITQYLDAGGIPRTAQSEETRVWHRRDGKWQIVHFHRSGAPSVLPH
UniProt Q13555: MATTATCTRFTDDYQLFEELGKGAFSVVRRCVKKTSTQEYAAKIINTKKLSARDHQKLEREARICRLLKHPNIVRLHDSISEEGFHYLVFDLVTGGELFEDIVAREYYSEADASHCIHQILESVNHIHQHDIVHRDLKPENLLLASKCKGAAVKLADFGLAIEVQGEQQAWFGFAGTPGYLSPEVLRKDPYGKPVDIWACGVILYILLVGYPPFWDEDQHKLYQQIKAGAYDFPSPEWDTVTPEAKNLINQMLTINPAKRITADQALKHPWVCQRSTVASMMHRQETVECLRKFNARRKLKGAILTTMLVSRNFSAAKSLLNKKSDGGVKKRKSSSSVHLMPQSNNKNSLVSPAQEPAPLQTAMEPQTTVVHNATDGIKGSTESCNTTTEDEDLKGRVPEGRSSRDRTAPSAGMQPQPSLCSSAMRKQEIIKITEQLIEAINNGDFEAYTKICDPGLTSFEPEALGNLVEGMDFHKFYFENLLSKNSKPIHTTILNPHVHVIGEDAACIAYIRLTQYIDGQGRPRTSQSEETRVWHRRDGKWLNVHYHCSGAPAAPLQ
UniProt Q00526: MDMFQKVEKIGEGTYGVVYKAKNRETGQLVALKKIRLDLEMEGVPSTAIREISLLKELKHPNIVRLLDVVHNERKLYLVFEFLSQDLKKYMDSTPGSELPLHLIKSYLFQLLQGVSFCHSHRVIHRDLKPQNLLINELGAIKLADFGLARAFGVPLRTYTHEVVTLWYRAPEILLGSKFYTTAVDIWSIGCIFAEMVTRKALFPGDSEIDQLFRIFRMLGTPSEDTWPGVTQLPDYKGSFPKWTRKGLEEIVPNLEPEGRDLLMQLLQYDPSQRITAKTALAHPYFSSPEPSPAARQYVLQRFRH
UniProt P11802: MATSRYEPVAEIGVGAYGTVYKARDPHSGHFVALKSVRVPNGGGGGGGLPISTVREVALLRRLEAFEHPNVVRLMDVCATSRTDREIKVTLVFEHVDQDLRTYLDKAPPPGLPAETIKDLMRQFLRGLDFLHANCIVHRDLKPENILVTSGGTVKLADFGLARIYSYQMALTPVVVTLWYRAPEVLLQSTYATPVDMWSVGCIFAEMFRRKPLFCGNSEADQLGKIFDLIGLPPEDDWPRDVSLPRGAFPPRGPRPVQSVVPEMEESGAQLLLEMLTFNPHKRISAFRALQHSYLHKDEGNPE
UniProt Q00534, whole entry: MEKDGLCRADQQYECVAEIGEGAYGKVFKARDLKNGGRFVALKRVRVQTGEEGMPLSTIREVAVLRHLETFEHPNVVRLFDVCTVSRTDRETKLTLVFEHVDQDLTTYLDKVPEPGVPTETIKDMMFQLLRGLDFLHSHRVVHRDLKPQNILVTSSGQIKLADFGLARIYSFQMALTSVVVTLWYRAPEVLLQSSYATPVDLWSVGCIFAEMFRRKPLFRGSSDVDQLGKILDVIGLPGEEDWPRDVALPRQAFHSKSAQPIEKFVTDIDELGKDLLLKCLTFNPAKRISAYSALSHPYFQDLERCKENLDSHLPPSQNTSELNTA
UniProt O96017, whole entry: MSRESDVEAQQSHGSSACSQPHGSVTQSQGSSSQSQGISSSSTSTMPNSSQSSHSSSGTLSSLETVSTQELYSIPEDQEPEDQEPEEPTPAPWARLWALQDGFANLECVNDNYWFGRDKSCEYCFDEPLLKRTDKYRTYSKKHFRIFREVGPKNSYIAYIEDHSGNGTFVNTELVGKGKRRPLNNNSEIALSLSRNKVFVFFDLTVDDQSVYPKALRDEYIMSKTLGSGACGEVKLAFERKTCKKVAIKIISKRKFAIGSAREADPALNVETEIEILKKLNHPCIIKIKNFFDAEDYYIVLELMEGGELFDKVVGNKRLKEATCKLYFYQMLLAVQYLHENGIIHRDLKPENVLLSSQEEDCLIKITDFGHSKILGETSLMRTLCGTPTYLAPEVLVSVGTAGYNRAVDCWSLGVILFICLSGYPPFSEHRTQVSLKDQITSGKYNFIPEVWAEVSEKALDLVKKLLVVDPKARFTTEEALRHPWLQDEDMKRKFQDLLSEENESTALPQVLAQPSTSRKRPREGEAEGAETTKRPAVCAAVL
UniProt P07333, whole entry: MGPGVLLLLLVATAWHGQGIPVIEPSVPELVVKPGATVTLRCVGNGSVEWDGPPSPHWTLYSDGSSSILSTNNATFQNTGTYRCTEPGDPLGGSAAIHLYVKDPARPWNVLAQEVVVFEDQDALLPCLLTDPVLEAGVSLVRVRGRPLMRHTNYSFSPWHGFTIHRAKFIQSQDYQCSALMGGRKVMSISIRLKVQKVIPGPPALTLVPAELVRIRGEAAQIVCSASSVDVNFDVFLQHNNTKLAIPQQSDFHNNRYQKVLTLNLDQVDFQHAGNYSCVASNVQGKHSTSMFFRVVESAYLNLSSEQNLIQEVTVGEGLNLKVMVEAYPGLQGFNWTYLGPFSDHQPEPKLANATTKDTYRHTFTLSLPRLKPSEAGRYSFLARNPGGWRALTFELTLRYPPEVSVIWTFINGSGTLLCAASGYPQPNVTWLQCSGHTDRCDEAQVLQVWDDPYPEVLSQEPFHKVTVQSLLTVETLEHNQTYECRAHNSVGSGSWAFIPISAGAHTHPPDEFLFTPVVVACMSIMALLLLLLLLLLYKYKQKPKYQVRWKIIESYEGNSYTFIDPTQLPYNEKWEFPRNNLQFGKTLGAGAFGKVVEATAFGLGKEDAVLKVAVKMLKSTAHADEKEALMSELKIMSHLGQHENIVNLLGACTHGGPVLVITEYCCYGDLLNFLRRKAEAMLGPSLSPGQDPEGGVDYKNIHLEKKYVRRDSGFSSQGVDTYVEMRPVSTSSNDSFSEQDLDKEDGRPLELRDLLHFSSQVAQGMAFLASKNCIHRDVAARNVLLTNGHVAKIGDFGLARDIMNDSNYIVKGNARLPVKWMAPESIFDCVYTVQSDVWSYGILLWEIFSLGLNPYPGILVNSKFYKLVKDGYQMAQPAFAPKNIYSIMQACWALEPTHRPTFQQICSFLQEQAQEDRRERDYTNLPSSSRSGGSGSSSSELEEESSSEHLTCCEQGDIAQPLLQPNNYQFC
UniProt P48729: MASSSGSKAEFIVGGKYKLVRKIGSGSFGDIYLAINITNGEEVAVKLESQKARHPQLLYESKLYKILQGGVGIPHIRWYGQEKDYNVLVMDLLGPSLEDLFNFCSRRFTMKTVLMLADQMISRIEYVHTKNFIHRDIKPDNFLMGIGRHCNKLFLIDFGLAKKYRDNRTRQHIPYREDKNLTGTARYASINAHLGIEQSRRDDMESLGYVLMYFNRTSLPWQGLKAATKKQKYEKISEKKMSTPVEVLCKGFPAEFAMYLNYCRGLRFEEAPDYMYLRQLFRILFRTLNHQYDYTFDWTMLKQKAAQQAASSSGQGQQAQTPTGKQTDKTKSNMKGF
UniProt P48730: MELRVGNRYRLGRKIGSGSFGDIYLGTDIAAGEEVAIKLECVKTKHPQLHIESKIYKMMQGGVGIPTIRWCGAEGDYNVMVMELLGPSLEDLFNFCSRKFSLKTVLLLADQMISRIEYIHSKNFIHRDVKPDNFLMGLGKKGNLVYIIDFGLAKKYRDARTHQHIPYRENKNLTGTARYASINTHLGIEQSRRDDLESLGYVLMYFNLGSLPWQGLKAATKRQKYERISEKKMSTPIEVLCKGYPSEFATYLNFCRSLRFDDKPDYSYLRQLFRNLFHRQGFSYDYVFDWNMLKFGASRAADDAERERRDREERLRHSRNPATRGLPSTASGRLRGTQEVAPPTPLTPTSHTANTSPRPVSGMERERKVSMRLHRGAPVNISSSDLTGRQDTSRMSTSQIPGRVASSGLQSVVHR
UniProt Q08345: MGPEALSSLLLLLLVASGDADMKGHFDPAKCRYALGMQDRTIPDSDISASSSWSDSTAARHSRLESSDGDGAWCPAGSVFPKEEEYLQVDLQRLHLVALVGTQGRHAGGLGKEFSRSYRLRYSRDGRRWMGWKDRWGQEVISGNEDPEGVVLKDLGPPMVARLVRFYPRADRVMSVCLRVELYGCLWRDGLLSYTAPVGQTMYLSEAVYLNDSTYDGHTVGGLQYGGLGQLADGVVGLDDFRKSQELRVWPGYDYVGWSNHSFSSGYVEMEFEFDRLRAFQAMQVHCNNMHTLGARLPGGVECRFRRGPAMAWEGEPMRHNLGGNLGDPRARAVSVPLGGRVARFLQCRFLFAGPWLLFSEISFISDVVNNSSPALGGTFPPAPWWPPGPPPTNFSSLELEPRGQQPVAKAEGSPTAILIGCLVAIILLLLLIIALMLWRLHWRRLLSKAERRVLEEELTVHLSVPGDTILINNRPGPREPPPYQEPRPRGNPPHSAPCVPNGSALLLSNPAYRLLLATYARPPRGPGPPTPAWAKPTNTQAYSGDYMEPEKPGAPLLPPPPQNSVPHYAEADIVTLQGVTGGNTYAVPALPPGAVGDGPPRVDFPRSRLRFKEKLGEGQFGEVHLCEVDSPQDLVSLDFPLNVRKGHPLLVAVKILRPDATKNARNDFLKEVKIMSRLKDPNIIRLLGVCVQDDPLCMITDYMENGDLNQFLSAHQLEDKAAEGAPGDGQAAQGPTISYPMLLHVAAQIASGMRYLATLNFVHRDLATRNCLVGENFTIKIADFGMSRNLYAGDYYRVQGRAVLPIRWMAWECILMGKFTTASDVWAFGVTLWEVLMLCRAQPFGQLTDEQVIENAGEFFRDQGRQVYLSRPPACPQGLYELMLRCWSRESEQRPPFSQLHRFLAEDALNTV
UniProt Q9Y463, whole entry, looked up: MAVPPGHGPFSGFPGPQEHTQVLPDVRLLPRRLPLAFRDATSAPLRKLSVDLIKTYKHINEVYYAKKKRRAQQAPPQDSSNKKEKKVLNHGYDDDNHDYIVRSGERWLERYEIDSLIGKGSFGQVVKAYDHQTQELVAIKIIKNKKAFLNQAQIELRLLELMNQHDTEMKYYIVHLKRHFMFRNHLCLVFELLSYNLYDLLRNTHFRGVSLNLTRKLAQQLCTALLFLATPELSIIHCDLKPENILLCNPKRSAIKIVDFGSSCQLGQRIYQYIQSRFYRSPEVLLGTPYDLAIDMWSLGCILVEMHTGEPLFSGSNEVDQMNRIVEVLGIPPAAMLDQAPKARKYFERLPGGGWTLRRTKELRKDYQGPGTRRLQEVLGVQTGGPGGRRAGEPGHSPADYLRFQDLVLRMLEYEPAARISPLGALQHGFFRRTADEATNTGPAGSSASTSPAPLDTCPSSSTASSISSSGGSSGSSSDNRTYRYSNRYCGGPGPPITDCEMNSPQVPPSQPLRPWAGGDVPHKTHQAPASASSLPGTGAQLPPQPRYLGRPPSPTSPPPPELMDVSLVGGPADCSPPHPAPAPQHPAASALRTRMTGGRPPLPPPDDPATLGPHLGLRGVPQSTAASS
UniProt Q92630: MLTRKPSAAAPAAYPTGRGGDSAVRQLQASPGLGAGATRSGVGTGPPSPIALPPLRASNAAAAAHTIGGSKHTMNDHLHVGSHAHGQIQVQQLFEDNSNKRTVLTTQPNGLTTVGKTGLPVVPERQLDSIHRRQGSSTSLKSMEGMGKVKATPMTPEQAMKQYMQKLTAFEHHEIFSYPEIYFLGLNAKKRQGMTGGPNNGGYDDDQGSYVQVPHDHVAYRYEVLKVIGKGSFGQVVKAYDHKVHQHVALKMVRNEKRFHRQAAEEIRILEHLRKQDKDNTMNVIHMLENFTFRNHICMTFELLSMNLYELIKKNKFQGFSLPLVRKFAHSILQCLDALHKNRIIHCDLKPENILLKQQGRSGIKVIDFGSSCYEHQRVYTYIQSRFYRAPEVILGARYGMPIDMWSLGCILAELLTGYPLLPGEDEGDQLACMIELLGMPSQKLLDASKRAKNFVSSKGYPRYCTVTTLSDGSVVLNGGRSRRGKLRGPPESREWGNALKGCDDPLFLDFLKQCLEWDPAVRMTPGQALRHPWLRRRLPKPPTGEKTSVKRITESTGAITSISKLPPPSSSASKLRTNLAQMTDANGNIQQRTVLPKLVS

How the values were obtained:
Assay in all cases: kinase-Nluc reporter destabilization hit call (1 = scored as downregulated) (binary); higher = compound decreases kinase abundance
Details in all cases: K562; 2-18 h
[1] = test system: BRAF_V600E
[2] = biological target: BTK (UniProt Q06187)
[3] = biological target: CAMK2A (UniProt Q9UQM7)
[4] = biological target: CAMK2G (UniProt Q13555)
[5] = biological target: CDK10 (UniProt Q15131)
[6] = biological target: CDK2 (UniProt P24941)
[7] = biological target: CDK3 (UniProt Q00526)
[8] = biological target: CDK4 (UniProt P11802)
[9] = biological target: CDK5 (UniProt Q00535)
[10] = biological target: CDK6 (UniProt Q00534)
[11] = biological target: CDK7 (UniProt P50613)
[12] = biological target: CDK9 (UniProt P50750)
[13] = biological target: CHEK2 (UniProt O96017)
[14] = biological target: CSF1R (UniProt P07333)
[15] = biological target: CSK (UniProt P41240)
[16] = biological target: CSNK1A1 (UniProt P48729)
[17] = biological target: CSNK1D (UniProt P48730)
[18] = biological target: DDR1 (UniProt Q08345)
[19] = biological target: DYRK1B (UniProt Q9Y463)
[20] = biological target: DYRK2 (UniProt Q92630)

Measured: kinase-Nluc reporter destabilization hit call

CC(=O)NCCc1c[nH]c2ccc(O)cc12 [N-Acetyl-5-hydroxytryptamine] (10 µM)
inactive: [1] 0 | [2] 0 | [3] 0 | [4] 0 | [5] 0 | [6] 0 | [7] 0 | [8] 0 | [9] 0 | [10] 0 | [11] 0 | [12] 0 | [13] 0 | [14] 0 | [15] 0 | [16] 0 | [17] 0 | [18] 0 | [19] 0 | [20] 0

O=C(O)c1ccc(N2N=C(Cc3ccccc3)C(=Cc3ccc(-c4ccccc4F)o3)C2=O)cc1 (10 µM)
inactive: [1] 0 | [2] 0 | [3] 0 | [4] 0 | [5] 0 | [6] 0 | [7] 0 | [8] 0 | [9] 0 | [10] 0 | [11] 0 | [12] 0 | [13] 0 | [14] 0 | [15] 0 | [16] 0 | [17] 0 | [18] 0 | [19] 0 | [20] 0

C=CS(=O)(=O)c1ccc(Nc2nc(OCC3CCCCC3)c3[nH]cnc3n2)cc1 (2.5 µM)
inactive: [1] 0 | [2] 0 | [3] 0 | [4] 0 | [5] 0 | [6] 0 | [7] 0 | [8] 0 | [9] 0 | [10] 0 | [11] 0 | [12] 0 | [13] 0 | [14] 0 | [15] 0 | [16] 0 | [17] 0 | [18] 0 | [19] 0 | [20] 0

Part of the list above in order of heavy-atom count, descending:
O=C(O)c1ccc(N2N=C(Cc3ccccc3)C(=Cc3ccc(-c4ccccc4F)o3)C2=O)cc1 (10 µM)
inactive: [1] 0 | [2] 0 | [3] 0 | [4] 0 | [5] 0 | [6] 0 | [7] 0 | [8] 0 | [9] 0 | [10] 0 | [11] 0 | [12] 0 | [13] 0 | [14] 0 | [15] 0 | [16] 0 | [17] 0 | [18] 0 | [19] 0 | [20] 0

C=CS(=O)(=O)c1ccc(Nc2nc(OCC3CCCCC3)c3[nH]cnc3n2)cc1 (2.5 µM)
inactive: [1] 0 | [2] 0 | [3] 0 | [4] 0 | [5] 0 | [6] 0 | [7] 0 | [8] 0 | [9] 0 | [10] 0 | [11] 0 | [12] 0 | [13] 0 | [14] 0 | [15] 0 | [16] 0 | [17] 0 | [18] 0 | [19] 0 | [20] 0

CC(=O)NCCc1c[nH]c2ccc(O)cc12 [N-Acetyl-5-hydroxytryptamine] (10 µM)
inactive: [1] 0 | [2] 0 | [3] 0 | [4] 0 | [5] 0 | [6] 0 | [7] 0 | [8] 0 | [9] 0 | [10] 0 | [11] 0 | [12] 0 | [13] 0 | [14] 0 | [15] 0 | [16] 0 | [17] 0 | [18] 0 | [19] 0 | [20] 0

Additional structures follow.

O=C(Nc1ccc(Cl)c(Cl)c1)Nc1ccc2nnsc2c1 (10 µM)
inactive: [1] 0 | [2] 0 | [3] 0 | [4] 0 | [5] 0 | [6] 0 | [7] 0 | [8] 0 | [9] 0 | [10] 0 | [11] 0 | [12] 0 | [13] 0 | [14] 0 | [15] 0 | [16] 0 | [17] 0 | [18] 0 | [19] 0 | [20] 0

COc1nc(-c2cccc3c2OCCO3)ccc1Nc1ccc(CN(C)C)cc1 [RAS inhibitor Abd-7] (10 µM)
inactive: [1] 0 | [2] 0 | [3] 0 | [4] 0 | [5] 0 | [6] 0 | [7] 0 | [8] 0 | [9] 0 | [10] 0 | [11] 0 | [12] 0 | [13] 0 | [14] 0 | [15] 0 | [16] 0 | [17] 0 | [18] 0 | [19] 0 | [20] 0

CC1=C(C(=O)Nc2ccc3[nH]ncc3c2)C(c2ccc(F)cc2)NC(=O)N1 (stereo not given) (10 µM)
inactive: [1] 0 | [2] 0 | [3] 0 | [4] 0 | [5] 0 | [6] 0 | [7] 0 | [8] 0 | [9] 0 | [10] 0 | [11] 0 | [12] 0 | [13] 0 | [14] 0 | [15] 0 | [16] 0 | [17] 0 | [18] 0 | [19] 0 | [20] 0

Cc1cccc(-c2[nH]ncc2-c2ccc3ncccc3n2)n1 (10 µM)
inactive: [1] 0 | [2] 0 | [3] 0 | [4] 0 | [5] 0 | [6] 0 | [7] 0 | [8] 0 | [9] 0 | [10] 0 | [11] 0 | [12] 0 | [13] 0 | [14] 0 | [15] 0 | [16] 0 | [17] 0 | [18] 0 | [19] 0 | [20] 0

Nc1cc(C(F)(F)F)c(-c2nc(N3CCOCC3)nc(N3CCOCC3)n2)cn1 [Bimiralisib] (10 µM)
inactive: [1] 0 | [2] 0 | [3] 0 | [4] 0 | [5] 0 | [6] 0 | [7] 0 | [8] 0 | [9] 0 | [10] 0 | [11] 0 | [12] 0 | [13] 0 | [14] 0 | [15] 0 | [16] 0 | [17] 0 | [18] 0 | [19] 0 | [20] 0

CN(C)Cc1cccc(N=C(c2ccccc2)c2c(O)[nH]c3cc(C(N)=O)ccc23)c1 (10 µM)
inactive: [1] 0 | [2] 0 | [3] 0 | [4] 0 | [5] 0 | [6] 0 | [7] 0 | [8] 0 | [9] 0 | [10] 0 | [11] 0 | [12] 0 | [13] 0 | [14] 0 | [15] 0 | [16] 0 | [17] 0 | [18] 0 | [19] 0 | [20] 0
